The target of this assay is T1, GST-tagged Abl SH3 domain fusion protein (human, UniProt P00519 61-121, limits assumed).
T1 construct: domain: SH3 domain; also called GST-Abl SH3; Abl1 SH3 domain; not shown: GST tag
The experiment in a line: peptide microarray production run, GST-Abl SH3 5 uM overlaid.

By UniProt entry, the sequences of proteins in these tests, tags left out. Where a name states a change or a piece, a line headed by the entry shows the natural chain unless it says otherwise. Residues count along the entry.
UniProt P00519, residues 61-121: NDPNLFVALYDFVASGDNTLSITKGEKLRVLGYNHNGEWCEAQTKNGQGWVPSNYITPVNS
UniProt Q9BYW2: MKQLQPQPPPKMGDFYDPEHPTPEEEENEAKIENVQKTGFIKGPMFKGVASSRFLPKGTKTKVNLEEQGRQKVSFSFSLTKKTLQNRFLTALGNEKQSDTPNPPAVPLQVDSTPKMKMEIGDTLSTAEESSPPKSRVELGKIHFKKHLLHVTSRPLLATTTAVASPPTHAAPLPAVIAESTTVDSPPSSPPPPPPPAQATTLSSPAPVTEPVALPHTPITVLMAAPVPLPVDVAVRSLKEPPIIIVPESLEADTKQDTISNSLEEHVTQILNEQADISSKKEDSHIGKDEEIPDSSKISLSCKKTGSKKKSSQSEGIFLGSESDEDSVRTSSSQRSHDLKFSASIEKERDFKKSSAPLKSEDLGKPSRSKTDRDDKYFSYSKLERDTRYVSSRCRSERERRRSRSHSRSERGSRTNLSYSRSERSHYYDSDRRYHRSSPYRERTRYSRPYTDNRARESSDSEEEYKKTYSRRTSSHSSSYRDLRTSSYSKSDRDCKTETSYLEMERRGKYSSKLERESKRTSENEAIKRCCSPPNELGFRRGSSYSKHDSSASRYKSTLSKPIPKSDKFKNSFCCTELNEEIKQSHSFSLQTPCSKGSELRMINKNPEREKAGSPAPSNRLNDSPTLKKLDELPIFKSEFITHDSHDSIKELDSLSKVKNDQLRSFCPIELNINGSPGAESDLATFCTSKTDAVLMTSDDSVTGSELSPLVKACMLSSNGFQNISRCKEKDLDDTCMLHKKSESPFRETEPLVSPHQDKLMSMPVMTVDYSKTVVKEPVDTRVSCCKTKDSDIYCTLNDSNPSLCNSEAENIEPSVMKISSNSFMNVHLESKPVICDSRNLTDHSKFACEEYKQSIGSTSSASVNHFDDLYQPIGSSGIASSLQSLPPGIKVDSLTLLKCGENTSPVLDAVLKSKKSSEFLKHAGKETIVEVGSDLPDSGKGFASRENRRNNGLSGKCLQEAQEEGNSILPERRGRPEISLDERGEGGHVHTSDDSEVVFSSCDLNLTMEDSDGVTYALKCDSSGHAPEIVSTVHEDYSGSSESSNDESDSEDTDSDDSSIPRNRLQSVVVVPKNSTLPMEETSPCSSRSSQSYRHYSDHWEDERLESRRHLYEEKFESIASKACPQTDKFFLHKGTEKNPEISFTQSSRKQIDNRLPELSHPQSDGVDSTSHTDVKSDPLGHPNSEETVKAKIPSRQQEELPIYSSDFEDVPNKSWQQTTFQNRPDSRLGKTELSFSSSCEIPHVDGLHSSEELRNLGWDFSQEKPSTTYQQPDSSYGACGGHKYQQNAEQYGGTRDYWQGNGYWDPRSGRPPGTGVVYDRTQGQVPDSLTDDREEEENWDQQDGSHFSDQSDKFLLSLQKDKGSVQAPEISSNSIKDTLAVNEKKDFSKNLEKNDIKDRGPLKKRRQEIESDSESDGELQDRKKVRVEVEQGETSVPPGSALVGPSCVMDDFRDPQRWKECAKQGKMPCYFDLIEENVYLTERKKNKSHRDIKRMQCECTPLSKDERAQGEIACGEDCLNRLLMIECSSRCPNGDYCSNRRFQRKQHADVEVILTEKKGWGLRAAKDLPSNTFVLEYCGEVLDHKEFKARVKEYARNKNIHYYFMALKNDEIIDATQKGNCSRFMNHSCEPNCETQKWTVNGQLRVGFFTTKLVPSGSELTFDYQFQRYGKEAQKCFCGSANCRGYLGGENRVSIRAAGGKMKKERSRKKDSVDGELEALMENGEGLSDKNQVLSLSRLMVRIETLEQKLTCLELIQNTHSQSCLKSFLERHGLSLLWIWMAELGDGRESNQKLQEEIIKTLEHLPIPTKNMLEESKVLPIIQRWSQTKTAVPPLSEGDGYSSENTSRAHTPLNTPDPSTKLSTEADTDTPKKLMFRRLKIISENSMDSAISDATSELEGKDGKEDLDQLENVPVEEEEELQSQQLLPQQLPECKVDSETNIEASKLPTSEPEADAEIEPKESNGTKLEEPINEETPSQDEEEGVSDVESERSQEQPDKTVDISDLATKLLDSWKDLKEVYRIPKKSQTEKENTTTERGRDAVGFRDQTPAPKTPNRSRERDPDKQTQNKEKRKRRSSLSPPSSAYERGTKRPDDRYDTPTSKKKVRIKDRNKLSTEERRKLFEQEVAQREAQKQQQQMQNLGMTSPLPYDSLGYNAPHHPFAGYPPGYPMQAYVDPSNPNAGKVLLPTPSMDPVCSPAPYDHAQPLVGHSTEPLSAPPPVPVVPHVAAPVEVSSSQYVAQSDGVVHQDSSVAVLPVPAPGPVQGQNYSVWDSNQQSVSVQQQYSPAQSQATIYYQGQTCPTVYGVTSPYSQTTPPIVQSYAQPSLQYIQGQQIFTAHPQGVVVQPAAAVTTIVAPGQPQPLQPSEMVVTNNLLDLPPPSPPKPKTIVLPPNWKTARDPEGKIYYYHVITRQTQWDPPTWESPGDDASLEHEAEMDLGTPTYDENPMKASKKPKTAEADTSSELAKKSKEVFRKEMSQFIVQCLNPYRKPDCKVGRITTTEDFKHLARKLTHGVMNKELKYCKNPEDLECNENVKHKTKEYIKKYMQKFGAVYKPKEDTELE

No constants are given. Whether binding was seen depends on the method and setting. Some results given as binding are weak or reduced against the parent protein; the word gives no strength.

For the molecule PSSPPPPPPP (peptide, UniProt Q9BYW2 187-196, looked up, N-terminal aminohexanoic acid (Ahx) linker) [SETD2 peptide (amino acid 187-196)], the binding entry was “binds”.

In the case of SPPSSPPPPP (peptide, UniProt Q9BYW2 185-194, looked up, N-terminal aminohexanoic acid (Ahx) linker) [SETD2 peptide (amino acid 185-194)], the binding entry is listed as “binds”.

Source of the values: patent US20130116146A1 (University of California, published 2013).
